Source: patent publication US20250042956A1
No constants are given. Whether binding was seen depends on the method and setting. Binding seen in cells or lysates may run through a third protein. Some entries that bind do so weakly or less than the wild type.

Chains of the proteins cited; added tags and fusions are not shown.
UniProt Q9M658: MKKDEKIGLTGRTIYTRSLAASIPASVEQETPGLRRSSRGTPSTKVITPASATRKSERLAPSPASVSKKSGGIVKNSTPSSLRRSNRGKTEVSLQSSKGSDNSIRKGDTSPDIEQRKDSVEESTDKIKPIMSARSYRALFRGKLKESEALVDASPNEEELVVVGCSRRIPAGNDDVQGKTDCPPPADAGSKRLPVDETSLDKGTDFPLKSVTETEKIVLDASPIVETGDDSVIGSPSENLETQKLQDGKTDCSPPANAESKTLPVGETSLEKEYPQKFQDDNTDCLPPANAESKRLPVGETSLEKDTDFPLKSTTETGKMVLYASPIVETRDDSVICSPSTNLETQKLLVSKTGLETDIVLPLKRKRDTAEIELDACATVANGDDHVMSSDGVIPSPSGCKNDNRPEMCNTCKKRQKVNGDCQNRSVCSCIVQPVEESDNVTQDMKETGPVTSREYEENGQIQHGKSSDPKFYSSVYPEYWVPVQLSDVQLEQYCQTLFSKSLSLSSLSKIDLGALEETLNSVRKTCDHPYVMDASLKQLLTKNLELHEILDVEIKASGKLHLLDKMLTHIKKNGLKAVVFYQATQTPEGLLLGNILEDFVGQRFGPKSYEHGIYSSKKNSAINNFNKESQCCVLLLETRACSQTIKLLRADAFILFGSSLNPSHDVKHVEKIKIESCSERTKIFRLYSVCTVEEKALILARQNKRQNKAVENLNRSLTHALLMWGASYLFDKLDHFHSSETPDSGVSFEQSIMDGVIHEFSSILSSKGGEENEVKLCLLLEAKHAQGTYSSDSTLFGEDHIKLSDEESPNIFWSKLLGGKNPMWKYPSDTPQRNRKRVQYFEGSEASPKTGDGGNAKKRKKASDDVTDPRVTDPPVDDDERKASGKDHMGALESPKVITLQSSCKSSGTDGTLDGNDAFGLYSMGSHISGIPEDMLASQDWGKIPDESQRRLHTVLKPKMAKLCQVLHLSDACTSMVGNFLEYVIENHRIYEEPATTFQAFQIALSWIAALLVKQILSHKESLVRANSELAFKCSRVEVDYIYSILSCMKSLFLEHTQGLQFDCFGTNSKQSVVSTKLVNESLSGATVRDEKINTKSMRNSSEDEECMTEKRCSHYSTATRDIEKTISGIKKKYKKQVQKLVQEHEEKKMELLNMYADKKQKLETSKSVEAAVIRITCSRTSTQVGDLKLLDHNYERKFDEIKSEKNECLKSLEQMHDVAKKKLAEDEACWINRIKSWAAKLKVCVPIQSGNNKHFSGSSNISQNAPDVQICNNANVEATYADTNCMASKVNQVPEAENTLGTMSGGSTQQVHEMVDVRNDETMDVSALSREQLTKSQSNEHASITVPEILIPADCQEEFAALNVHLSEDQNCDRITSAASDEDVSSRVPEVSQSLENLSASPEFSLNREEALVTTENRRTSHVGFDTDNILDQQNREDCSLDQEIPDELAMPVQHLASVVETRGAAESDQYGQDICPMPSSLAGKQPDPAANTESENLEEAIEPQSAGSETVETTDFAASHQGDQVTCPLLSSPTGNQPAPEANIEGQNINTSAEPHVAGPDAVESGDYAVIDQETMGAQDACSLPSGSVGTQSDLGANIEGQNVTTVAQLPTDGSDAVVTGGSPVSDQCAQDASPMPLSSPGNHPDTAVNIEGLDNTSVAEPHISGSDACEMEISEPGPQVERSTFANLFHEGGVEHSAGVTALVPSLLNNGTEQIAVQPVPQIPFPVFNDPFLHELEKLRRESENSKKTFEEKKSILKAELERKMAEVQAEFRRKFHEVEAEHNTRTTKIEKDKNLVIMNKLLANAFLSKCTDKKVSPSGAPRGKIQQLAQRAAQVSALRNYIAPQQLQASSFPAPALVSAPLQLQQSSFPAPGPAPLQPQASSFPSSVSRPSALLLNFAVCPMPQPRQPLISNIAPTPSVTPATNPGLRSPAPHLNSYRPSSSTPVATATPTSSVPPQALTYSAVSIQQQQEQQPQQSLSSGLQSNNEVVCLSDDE

Target: T1, PIAL2 (Arabidopsis thaliana) (UniProt F4JYG0)
T1 sequence: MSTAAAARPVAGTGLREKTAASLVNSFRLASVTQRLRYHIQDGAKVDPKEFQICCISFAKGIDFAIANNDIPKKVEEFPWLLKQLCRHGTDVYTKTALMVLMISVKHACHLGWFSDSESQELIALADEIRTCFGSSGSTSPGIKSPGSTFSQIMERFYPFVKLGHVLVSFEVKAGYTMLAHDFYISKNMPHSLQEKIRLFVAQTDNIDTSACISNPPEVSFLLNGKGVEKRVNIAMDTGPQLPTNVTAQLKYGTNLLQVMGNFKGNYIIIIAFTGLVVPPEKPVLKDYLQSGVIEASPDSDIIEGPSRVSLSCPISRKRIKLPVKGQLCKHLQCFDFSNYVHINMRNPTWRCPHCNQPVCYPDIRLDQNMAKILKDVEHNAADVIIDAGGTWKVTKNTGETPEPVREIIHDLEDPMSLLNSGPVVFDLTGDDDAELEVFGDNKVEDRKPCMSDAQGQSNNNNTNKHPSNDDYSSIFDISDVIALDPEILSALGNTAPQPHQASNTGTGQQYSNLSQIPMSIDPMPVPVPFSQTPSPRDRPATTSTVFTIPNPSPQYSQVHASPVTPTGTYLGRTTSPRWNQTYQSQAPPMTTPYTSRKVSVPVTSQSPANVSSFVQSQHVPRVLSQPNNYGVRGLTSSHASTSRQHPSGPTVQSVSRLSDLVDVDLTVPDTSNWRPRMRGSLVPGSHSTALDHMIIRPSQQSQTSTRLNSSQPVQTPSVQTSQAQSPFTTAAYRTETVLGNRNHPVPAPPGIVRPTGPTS
Assay: IP-MS

In the case of “epitope tagged MOM1 (from UniProt Q9M658 1-2001)”, the binding is reported as “binds”.
